Test results published in the supplement of paper PMC6078165.

Key:
Assay in all cases: relative JC-1 red fluorescence (viability) vs pre-drug, monoculture (fraction); higher = more viable cancer cells
Conditions in all cases: coculture fibroblast: none (monoculture)
[1] = system: HCC1143
Description: (§1)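 JC-1 labelled TNBC cells grown in monoculture (density kept equal with unlabelled cancer cells) in 384-well plates in FluoroBrite medium, treated with one of 42 anticancer drugs at 0.1, 1, 10 or 100 uM. JC-1 red fluorescence (mitochondrial integrity, surrogate of apoptotic death) was read by plate reader every 8 h for 72 h. Values are normalised to each well's pre-drug value, with background from alamethicin. The stock of one drug was tenfold lower, so its dose labels may be too high. Monoculture values are repeated alongside each fibroblast plate and are averaged here.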

[2] = system: Hs578T
Description: as §1

[3] = system: MDAMB468
Description: as §1

[4] = system: BT20
Description: as §1

Nc1ncn([C@@H]2O[C@H](CO)[C@@H](O)[C@H]2O)c(=O)n1 [Azacitidine]
relative JC-1 red fluorescence
Conditions	8 h	16 h	24 h	32 h	40 h	48 h	56 h	64 h	72 h
[1], 0.1 µM	0.831	0.773	0.716	0.667	0.62	0.606	0.586	0.582	0.581
[1], 1 µM	0.8881	0.8034	0.7493	0.711	0.68	0.664	0.656	0.654	0.655
[1], 10 µM	0.873	0.7969	0.773	0.722	0.691	0.657	0.645	0.63	0.624
[1], 100 µM	0.872	0.791	0.742	0.707	0.671	0.643	0.619	0.605	0.5889
[2], 0.1 µM	0.821	0.693	0.6226	0.549	0.489	0.457	0.424	0.418	0.406
[2], 1 µM	0.837	0.707	0.665	0.604	0.567	0.542	0.526	0.53	0.524
[2], 10 µM	0.874	0.6987	0.738	0.6586	0.635	0.636	0.623	0.634	0.636
[2], 100 µM	0.863	0.706	0.715	0.631	0.611	0.587	0.559	0.572	0.565
[3], 0.1 µM	0.8012	0.7817	0.795	0.764	0.743	0.757	0.755	0.757	0.768
[3], 1 µM	0.913	0.844	0.783	0.721	0.673	0.655	0.631	0.61	0.602
[3], 10 µM	0.832	0.7075	0.675	0.612	0.583	0.563	0.519	0.511	0.505
[3], 100 µM	0.854	0.7481	0.644	0.549	0.5079	0.479	0.4454	0.406	0.387
[4], 0.1 µM	0.92	0.863	0.853	0.789	0.766	0.756	0.744	0.75	0.745
[4], 1 µM	0.9351	0.846	0.8071	0.7333	0.695	0.6768	0.6618	0.645	0.638
[4], 10 µM	0.9549	0.859	0.842	0.781	0.752	0.727	0.689	0.67	0.654
[4], 100 µM	0.941	0.826	0.784	0.732	0.723	0.702	0.689	0.678	0.666

O=NN(CCCl)C(=O)NCCCl [Carmustine]
relative JC-1 red fluorescence
Conditions	8 h	16 h	24 h	32 h	40 h	48 h	56 h	64 h	72 h
[1], 0.1 µM	0.9073	0.863	0.829	0.791	0.778	0.77	0.753	0.756	0.75
[1], 1 µM	0.8645	0.767	0.70516	0.6542	0.6074	0.5757	0.5563	0.534	0.519
[1], 10 µM	0.8898	0.793	0.728	0.669	0.609	0.57	0.533	0.506	0.486
[1], 100 µM	0.836	0.778	0.713	0.675	0.631	0.611	0.589	0.579	0.578
[2], 0.1 µM	0.83	0.7238	0.651	0.594	0.541	0.523	0.493	0.492	0.483
[2], 1 µM	0.757	0.644	0.643	0.572	0.543	0.528	0.509	0.52	0.524
[2], 10 µM	0.843	0.741	0.64	0.593	0.537	0.506	0.471	0.445	0.427
[2], 100 µM	0.7375	0.666	0.652	0.58	0.543	0.531	0.52	0.533	0.536
[3], 0.1 µM	0.898	0.835	0.764	0.717	0.671	0.647	0.608	0.586	0.579
[3], 1 µM	0.8884	0.773	0.79254	0.756	0.72	0.718	0.708	0.706	0.685
[3], 10 µM	0.89	0.831	0.777	0.7149	0.678	0.66	0.629	0.605	0.59
[3], 100 µM	0.846	0.828	0.828	0.779	0.763	0.763	0.734	0.734	0.723
[4], 0.1 µM	0.93691	0.8331	0.764	0.692	0.633	0.613	0.585	0.574	0.568
[4], 1 µM	0.8935	0.7894	0.755	0.677	0.63	0.605	0.574	0.56	0.541
[4], 10 µM	0.9491	0.852	0.812	0.752	0.72	0.702	0.668	0.654	0.645
[4], 100 µM	0.896	0.864	0.889	0.833	0.827	0.828	0.82	0.823	0.835

The reference is the same well before dosing, and untreated signal decays as well.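 The cancer cells are triple-negative breast cancer lines of basal-like or mesenchymal-like type, grown without fibroblasts. A drop in red signal reflects loss of mitochondrial integrity, a stand-in for apoptotic death.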
